For this assay, the target named is T1, FtsH5 (Arabidopsis thaliana (endogenous in leaf chloroplast isolate)) (UniProt Q9FH02).
T1 sequence: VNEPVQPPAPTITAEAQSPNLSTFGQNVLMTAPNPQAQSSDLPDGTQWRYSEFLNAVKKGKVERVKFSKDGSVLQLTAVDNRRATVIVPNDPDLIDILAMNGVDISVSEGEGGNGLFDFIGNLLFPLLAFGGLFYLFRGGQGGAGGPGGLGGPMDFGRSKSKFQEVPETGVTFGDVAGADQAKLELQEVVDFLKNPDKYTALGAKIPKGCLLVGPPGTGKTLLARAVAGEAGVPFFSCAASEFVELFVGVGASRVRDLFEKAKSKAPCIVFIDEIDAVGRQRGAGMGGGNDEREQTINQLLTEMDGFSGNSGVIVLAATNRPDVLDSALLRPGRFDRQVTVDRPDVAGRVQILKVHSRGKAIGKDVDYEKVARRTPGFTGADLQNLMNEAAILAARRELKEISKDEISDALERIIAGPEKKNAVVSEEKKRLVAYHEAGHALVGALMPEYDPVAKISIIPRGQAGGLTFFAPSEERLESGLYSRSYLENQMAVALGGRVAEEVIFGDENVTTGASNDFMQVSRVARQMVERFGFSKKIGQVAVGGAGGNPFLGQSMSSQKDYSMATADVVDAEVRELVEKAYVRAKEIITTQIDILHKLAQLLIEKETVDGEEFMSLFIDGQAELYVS
Put plainly: cross-linking; 1 mM DSBU (MS-cleavable) directly after cell disruption and again after chloroplast isolation; 1% SDS; lpBN-PAGE fractions digested with trypsin; interlinks identified by MS (MaxLynx); plants acclimated to LL, GL, EL or HL (20, 120, 600, 1000 µmol m^-2 s^-1).

Binding data for one substance are collected here from PMC11362043.

Results are given in words; binding and its absence hold for the method and conditions named. Binding seen in cells or lysates may run through a third protein.

For the substance FtsH5 interacting protein (FIP5), the binding result is on record as “no binding”.
